US8329413B2, “Glycoproteomic probes for fluorescent imaging of fucosylated glycans in vivo” (Academia Sinica, priority 2007, dated 2012)

How the values were obtained:
[1] = Stoichiometric study of L-histidine in the cycloaddition of 1a and 2a; details: 2.0 mol equivalent histidine to copper
Procedure: The overall volume in each vial was 250 microliters containing a solution of 1,8-naphthalimide 1a (0.5 mM), azidofucose 2a (1.0 mM), CUSO4 (1.0 mM), L-histidine (0-3.0 mM) and sodium ascorbate (5.0 mM) in DMSO/water (56% DMSO). The reactions were allowed to stand at room temperature for 24 hours. The catalytic activity was determined by the same method described above (FIG. 10).
In this condition, 60% of 1a was converted to the product 10 after 1 h at room temperature and the reaction was completed in less than 6 h. To confirm the effects of L-His on the reaction, we measured the time-course of the reaction by fluorescence spectrometer. Conditions: 1,8-naphthalimide 1a (0.1 mM), azidofucose 2a (1.0 mM), CuSO4 (2.0 mM), L-histidine (0 or 4.0 mM) and sodium ascorbate (100 mM) in 50 mM HEPES buffer (containing 6% DMSO). After mixing all reagents, the fluorescence intensity was measured in 5 min intervals at 37° C. by a fluorescence spectrophotometer (FIG. 11). […] Fluorescence intensities were monitored at λ ex 357 nm and λem 462 nm.

[2] = Cu(I)-catalyzed azide-alkyne cycloaddition of probes with fucose analogs, monitored by LC-MS; assay type: physicochemical

SMILES	conversion of 1a to the product ([1]; after 1 h at room temperature)	time to completion of reaction ([1]; room temperature)	conversion of 1a to 3a ([2]; after 24 h, same conditions, no ligand, with 2a, LC-MS)	time to completion of cycloaddition ([2]; reaction between 1a and 2a in the presence of Tris(triazolyl)amine ligand)	time to completion of cycloaddition ([2]; CuSO4/sodium ascorbate, no ligand, with fucose analog 2b)
C#Cc1ccc2c3c(cccc13)C(=O)N(CC)C2=O [Compound 1a, 4-Ethynyl-N-ethyl-1,8-naphthalimide]	60%	less than 6 h	10%	≤ 30 min	–
CCN1C(=O)c2cccc3c(N=[N+]=[N-])ccc(c23)C1=O [Compound 1b, 4-Azido-N-ethyl-1,8-naphthalimide]	–	–	–	–	< 30 min
